The target of the assay is T1, RP2-GFP (UniProt O75695).
T1 sequence: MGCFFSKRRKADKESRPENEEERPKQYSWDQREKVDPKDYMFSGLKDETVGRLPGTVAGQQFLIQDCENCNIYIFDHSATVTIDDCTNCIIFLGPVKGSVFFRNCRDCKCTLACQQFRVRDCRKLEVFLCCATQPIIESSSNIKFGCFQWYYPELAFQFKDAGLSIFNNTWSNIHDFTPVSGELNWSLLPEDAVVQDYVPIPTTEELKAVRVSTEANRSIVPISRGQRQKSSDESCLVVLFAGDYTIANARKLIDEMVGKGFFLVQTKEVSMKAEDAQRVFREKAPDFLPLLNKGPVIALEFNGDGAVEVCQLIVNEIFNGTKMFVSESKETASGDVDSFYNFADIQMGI
As to the kind of experiment: co-IP; HEK293 cells co-transfected with GFP-RP2 and VSV-ARL3 plasmids, 48 h; lysis in 10 mM Tris/Cl pH 7.5, 150 mM NaCl, 0.5 mM EDTA, 0.5% Nonidet P40 Substitute; lysates on GFP-Trap Magnetic Agarose beads; blots with anti-GFP and anti-VSV.

Chains of the proteins cited; added tags and fusions are not shown.
UniProt P36405: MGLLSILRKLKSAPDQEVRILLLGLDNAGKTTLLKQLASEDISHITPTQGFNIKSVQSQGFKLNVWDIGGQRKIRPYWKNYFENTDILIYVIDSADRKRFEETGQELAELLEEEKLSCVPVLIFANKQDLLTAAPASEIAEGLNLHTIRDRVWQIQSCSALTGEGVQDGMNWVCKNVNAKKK

Results are given in words; binding and its absence hold for the method and conditions named. In cells and extracts the contact can be indirect. Some binding calls cover weakened binding; strength is not graded here. Tags and fused reporters may be left off the sequences shown.

In the case of ARL3-WT-VSV (from UniProt P36405 1-182), the binding entry is reported as “binds”.

The record behind these values is PMC12010153.
